The experiment concerns the target GST-dGOLPH3 (Drosophila) (UniProt Q9VQ93). Briefly: pull-down; GST or GST-dGOLPH3 bound to glutathione-Sepharose 4B beads, incubated with testis lysate at 4 °C for 2 h; wash buffer 25 mM Tris-HCl pH 7.4, 150 mM NaCl, 1% NP-40, 1 mM EDTA; Western blot; only the target purified. A general note: A western blot detects proteins with antibodies after separation by electrophoresis.

Chains of the proteins cited; added tags and fusions are not shown. Lines headed by an entry give the natural chain unless they say otherwise; changes in a name come on top.
UniProt Q9VQ93: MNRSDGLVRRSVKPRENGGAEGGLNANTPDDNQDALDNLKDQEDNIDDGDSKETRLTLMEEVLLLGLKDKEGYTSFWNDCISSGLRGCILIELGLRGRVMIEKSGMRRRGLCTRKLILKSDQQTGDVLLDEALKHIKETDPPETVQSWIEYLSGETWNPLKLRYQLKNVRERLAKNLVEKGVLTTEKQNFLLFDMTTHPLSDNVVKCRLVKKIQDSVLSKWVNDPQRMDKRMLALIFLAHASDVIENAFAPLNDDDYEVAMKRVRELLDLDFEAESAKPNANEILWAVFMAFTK
UniProt A1Z7J7: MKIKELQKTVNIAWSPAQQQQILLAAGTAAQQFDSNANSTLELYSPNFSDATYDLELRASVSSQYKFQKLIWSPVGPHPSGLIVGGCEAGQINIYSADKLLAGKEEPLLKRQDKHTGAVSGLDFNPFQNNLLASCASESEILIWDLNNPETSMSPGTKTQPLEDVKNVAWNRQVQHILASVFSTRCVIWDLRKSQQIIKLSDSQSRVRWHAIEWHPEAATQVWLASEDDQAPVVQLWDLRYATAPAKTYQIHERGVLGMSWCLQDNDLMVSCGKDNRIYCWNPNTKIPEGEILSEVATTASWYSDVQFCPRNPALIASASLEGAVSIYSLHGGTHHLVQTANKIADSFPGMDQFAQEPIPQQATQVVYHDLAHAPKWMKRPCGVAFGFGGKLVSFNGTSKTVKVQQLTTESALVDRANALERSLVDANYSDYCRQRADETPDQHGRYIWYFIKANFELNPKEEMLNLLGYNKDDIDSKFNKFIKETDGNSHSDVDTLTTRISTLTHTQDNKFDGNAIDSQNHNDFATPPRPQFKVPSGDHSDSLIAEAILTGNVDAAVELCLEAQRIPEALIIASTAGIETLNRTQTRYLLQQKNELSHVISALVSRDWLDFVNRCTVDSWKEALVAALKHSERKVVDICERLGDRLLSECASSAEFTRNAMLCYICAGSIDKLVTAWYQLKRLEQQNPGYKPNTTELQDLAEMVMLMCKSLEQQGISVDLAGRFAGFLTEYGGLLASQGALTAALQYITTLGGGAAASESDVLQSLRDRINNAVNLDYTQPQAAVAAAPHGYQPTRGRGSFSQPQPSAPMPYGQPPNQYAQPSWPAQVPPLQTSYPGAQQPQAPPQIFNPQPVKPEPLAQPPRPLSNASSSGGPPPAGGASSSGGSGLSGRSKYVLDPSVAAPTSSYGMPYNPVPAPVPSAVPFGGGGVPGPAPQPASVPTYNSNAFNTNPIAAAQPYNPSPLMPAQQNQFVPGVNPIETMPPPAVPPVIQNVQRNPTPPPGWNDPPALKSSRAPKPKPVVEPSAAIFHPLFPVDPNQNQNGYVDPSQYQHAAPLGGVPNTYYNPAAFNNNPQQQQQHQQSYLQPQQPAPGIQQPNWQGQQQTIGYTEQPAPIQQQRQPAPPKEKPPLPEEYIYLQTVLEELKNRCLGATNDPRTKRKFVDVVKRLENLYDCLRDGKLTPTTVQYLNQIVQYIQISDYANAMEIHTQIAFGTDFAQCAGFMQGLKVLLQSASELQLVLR

These are yes or no findings as the source states them, for the method shown. In cells and extracts the contact can be indirect. A result given as binding can be weak or reduced; the word gives no strength.

Sec31 (from UniProt A1Z7J7): the binding result is reported as “binds”.
